No constants are given. Whether binding was seen depends on the method and setting. Binding seen in cells or lysates may run through a third protein. Some binding calls cover weakened binding; strength is not graded here. Where a sequence is shown, tags or fusion partners need not be part of it.

By UniProt entry, the sequences of proteins in these tests, tags left out. Residues count along the entry.
UniProt P02545, residues 1-646: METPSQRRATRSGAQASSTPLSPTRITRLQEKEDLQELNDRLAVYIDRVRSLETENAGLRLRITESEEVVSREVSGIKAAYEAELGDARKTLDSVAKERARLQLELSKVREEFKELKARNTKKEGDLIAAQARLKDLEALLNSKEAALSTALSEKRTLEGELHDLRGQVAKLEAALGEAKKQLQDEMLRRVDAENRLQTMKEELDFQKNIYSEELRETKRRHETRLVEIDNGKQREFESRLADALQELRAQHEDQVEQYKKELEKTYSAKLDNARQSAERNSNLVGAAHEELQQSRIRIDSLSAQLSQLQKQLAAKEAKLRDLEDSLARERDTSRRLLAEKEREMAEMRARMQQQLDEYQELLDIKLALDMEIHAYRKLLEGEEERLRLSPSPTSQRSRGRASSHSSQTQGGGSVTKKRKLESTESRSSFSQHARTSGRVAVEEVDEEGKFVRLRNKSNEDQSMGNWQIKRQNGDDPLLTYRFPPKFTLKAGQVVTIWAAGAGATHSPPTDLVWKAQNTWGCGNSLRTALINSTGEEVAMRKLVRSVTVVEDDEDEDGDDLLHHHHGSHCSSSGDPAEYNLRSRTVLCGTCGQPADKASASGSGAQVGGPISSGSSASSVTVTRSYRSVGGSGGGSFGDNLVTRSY

The target in experiment [1] is T1, YFP-SNX6 (UniProt Q9UNH7).
T1 sequence: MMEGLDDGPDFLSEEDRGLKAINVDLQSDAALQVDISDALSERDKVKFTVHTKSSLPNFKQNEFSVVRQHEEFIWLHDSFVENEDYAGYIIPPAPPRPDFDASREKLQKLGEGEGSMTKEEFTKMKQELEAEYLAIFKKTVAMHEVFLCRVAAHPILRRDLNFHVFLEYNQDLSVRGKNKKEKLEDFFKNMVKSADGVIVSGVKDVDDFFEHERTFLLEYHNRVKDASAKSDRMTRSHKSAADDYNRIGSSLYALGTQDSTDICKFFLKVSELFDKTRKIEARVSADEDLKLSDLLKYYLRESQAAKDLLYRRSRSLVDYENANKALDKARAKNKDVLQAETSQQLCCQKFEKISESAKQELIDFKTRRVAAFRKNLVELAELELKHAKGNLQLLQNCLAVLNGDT
Description: co-IP; lysates of U2OS cells transfected with YFP-SNX6 and HA-lamin A; precipitated with anti-GFP, protein A agarose, washes with 1% NP-40/PBS and TNE (500 mM NaCl), blot with anti-HA.

The target in experiment [2] is T2, GST-SNX6 fusion protein (sorting nexin 6) (UniProt Q9UNH7).
T2 sequence: T1 sequence
Description: pull-down; purified GST-SNX6 (3 ug) incubated with whole cell extracts (500 ug) in RIPA buffer overnight at 4 C, collected on glutathione-Sepharose 4B, washed three times with RIPA, immunoblot; only the target purified. (In general: Immunoblotting shows a protein as a band on a membrane.)

For experiment [3], the target named is T1, YFP-SNX6. Description: FRET or BRET; acceptor-photobleaching FRET in 4% PFA-fixed U2OS cells cotransfected with pEYFP-SNX6 and pECFP-Lamin A; control pEYFP with pECFP-Lamin A.

For the substance HA-lamin A (from UniProt P02545 1-646), the binding result (with YFP-SNX6 [1]; in experiment [2]) was “binds” in each case.

Turning to CFP-lamin A (from UniProt P02545 1-646), the binding result with YFP-SNX6 [3] is “binds”.

Values taken from article PMC4275242.
